Source: article PMC12238573 (Nature Communications, 2025)
These are yes or no findings as the source states them, for the method shown. A result given as binding can be weak or reduced; the word gives no strength.

Protein sequences, listed by entry. Tags and fused reporters are not part of them. Lines headed by an entry give the natural chain unless they say otherwise; changes in a name come on top.
UniProt Q14558: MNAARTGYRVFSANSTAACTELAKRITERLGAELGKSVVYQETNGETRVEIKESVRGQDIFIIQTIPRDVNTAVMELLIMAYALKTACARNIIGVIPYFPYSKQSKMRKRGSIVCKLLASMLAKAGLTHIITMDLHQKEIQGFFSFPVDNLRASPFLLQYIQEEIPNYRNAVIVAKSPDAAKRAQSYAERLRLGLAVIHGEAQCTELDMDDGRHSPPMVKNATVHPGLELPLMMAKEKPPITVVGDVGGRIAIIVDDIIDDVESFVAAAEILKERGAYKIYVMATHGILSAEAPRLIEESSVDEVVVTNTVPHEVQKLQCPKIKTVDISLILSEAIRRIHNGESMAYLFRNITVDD

Key:
[1] = target: T1, PRPS2 (endogenous, mouse) (mouse (endogenous in NIH3T3 and C57BL/6 tissues)) (UniProt Q9CS42); assay: SEC; native whole-cell lysates of NIH3T3 CRISPR knockout lines (P2/AP1/AP2, P2/AP1, P1/AP2, P1, P2, AP2, AP1, AP1/AP2, P1/AP1 KO), some re-expressing PRPS2, AP1 or AP2 constructs, on Superose 6 Increase 3.2/300; fractions analysed by Western blot
T1 sequence: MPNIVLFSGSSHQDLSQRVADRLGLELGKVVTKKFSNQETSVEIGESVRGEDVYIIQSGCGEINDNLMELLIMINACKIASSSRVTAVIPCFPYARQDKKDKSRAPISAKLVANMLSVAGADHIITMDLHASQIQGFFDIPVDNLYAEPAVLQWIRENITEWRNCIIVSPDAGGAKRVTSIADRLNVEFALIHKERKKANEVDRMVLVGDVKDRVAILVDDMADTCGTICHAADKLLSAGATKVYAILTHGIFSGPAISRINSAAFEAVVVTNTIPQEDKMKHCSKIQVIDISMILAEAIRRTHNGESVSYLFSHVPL

[2] = target: T2, PRPSAP2 (endogenous, mouse) (mouse (endogenous in NIH3T3 and C57BL/6 tissues)) (UniProt Q8R574); assay: as above
T2 sequence: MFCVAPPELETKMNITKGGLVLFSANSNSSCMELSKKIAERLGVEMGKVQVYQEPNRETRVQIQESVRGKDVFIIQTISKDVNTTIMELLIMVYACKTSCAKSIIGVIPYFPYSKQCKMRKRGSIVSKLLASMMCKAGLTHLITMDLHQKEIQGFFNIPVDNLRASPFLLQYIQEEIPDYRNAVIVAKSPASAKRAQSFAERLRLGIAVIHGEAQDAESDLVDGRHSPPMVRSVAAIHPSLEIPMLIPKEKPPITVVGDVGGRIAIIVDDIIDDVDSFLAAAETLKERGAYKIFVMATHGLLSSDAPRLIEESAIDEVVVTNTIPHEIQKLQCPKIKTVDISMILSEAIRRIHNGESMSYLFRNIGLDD

binding [1]	binding [2]	Substance
binds	binds	AP1 lacking the non-homologous region (NHR) (from UniProt Q14558)
no binding		PRPSAP1-ALFA, long isoform
